Here are results for four molecules from patent publication US8093068 (Janssen / Centocor, dated 2012).

Sequences of proteins named here, by UniProt entry; tags and fusion partners are left off. Residues count along the entry.
UniProt O15455, residues 24-704: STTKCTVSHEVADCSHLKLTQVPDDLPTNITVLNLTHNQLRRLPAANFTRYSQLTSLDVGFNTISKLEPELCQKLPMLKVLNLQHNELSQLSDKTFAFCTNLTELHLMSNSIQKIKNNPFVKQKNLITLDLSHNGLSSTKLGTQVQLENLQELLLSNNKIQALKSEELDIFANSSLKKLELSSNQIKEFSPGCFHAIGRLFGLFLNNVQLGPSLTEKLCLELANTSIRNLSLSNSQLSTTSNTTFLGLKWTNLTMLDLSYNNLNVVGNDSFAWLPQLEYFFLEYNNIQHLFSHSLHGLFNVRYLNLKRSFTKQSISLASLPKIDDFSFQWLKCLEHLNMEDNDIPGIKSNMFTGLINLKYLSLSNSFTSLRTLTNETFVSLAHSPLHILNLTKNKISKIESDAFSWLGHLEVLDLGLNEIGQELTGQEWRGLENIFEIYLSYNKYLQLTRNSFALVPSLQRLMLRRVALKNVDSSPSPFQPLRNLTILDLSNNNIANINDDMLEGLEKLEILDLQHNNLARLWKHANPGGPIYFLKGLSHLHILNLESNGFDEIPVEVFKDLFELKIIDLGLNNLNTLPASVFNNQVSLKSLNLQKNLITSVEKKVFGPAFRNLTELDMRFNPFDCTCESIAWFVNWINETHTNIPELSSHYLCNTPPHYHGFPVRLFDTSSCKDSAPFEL

In assay [1] the target is soluble human TLR3 extracellular domain (human) (UniProt O15455). Nature of the assay: ELISA on coated human TLR3 extracellular domain.
In assay [2] the target is T1, soluble human TLR3 extracellular domain (human, UniProt O15455 24-704).
T1 construct: extracellular domain; Coated on the ELISA plate; also called hTLR3; extracellular domain of human TLR3
Nature of the assay: ELISA on coated human TLR3 extracellular domain.

Results are given in words; binding and its absence hold for the method and conditions named. Some entries that bind do so weakly or less than the wild type.

B1: human-adapted anti-TLR3 mAb LV5/HV5 (antibody, V domains shown)
VH: QVQLVQSGAEVKKPGASVKVSCKASGYTFTTYWIHWVRQATGQGLEWMGEINPNNGRINYNEKFKTRVTMTRNTSISTAYMELSSLRSEDTAVYYCARVGVMITTFPYWGQGTLVTVSS
VL: DIQMTQSPSSLSASVGDRVTITCRASGNIHNYLAWYQQKPGKVPKLLIYNAKTLADGVPSRFSGSGSGTDFTLTISSLQPEDVATYYCQHFWSTPFTFGGGTKVEIK
Consider B1, for which the binding result in assay [1] is recorded as “binds”.

B2: human-adapted anti-TLR3 mAb LV1/HV5 (antibody, V domains shown)
VH: QVQLVQSGAEVKKPGASVKVSCKASGYTFTTYWIHWVRQATGQGLEWMGEINPNNGRINYNEKFKTRVTMTRNTSISTAYMELSSLRSEDTAVYYCARVGVMITTFPYWGQGTLVTVSS
VL: DIQMTQSPSSLSASVGDRVTITCRASGNIHNYLAWYQQKPGKAPKLLIYNAKTLADGVPSRFSGSGSGTDFTLTISSLQPEDFATYYCQHFWSTPFTFGQGTKLEIK
Consider B2, for which, in assay [2], the binding entry is on record as “binds”.

B3: human-adapted anti-TLR3 mAb LV5/HV4 (printed as LV5/LV4) (antibody, V domains shown)
VH: QVQLVQSGAEVKKPGASVKVSCKASGYTFTTYWIHWVRQAPGQGLEWMGEINPNNGRINYNEKFKTRVTMTRDTSISTAYMELSRLRSDDTAVYYCARVGVMITTFPYWGQGTLVTVSS
VL: DIQMTQSPSSLSASVGDRVTITCRASGNIHNYLAWYQQKPGKVPKLLIYNAKTLADGVPSRFSGSGSGTDFTLTISSLQPEDVATYYCQHFWSTPFTFGGGTKVEIK
Regarding B3, the binding result in assay [2] is “binds”.

B4: human-adapted anti-TLR3 mAb LV1/HV1 (antibody, V domains shown)
VH: QVQLVQSGAEVKKPGASVKVSCKASGYTFTTYWIHWVRQAPGQRLEWMGEINPNNGRINYNEKFKTRVTITRDTSASTAYMELSSLRSEDTAVYYCARVGVMITTFPYWGQGTLVTVSS
VL: DIQMTQSPSSLSASVGDRVTITCRASGNIHNYLAWYQQKPGKAPKLLIYNAKTLADGVPSRFSGSGSGTDFTLTISSLQPEDFATYYCQHFWSTPFTFGQGTKLEIK
B4: the binding result in assay [2] is “binds”.
